Data taken from US20030162221A1.
These are yes or no findings as the source states them, for the method shown. In cells and extracts the contact can be indirect. Some entries that bind do so weakly or less than the wild type. For some assays here: Sequences can lack the tags named with a protein.

Chains of the proteins cited; added tags and fusions are not shown.
UniProt P38903: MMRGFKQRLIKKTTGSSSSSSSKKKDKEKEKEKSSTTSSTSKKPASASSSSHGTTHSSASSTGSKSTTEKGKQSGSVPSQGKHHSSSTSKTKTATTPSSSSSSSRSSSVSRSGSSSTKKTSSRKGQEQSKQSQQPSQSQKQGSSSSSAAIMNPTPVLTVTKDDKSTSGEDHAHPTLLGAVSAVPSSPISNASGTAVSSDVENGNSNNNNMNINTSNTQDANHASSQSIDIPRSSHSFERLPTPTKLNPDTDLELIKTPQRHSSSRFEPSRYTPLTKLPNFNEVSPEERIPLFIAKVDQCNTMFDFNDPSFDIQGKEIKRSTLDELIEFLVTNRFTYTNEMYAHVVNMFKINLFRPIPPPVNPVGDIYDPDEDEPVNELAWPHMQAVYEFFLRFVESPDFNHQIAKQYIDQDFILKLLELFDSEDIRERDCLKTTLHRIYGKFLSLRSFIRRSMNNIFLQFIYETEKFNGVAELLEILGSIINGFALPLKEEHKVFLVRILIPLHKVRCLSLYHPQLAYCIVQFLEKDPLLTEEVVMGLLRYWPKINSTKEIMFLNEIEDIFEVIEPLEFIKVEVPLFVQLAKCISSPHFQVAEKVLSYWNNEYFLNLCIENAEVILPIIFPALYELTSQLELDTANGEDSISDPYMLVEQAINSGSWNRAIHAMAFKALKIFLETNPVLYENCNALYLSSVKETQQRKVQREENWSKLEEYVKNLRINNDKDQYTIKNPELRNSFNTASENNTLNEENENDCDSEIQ
UniProt P23594: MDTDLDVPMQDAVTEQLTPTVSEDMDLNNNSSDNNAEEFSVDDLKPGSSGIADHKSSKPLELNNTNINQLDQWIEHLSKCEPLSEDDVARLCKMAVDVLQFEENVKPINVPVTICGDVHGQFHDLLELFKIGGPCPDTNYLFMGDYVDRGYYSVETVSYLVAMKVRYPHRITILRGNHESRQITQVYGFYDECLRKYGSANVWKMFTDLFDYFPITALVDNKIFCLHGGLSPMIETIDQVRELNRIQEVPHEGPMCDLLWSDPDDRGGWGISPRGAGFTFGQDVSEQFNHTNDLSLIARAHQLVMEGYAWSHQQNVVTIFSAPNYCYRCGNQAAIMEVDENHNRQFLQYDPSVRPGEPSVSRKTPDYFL
UniProt P23595: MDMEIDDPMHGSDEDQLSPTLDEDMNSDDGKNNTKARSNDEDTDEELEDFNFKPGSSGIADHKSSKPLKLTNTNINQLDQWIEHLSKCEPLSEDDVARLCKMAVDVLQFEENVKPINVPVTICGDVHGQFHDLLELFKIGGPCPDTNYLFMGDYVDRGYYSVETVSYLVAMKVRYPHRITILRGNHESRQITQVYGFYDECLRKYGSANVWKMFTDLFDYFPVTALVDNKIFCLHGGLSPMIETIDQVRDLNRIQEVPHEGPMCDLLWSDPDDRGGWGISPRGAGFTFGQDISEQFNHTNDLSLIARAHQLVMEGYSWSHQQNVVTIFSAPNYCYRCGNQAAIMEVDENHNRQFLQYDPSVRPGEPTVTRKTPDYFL

Tests used:
[1] = biological target: Rts1 (Saccharomyces cerevisiae) (UniProt P38903); test: anti-FLAG co-IP, LC-MS/MS; pair by Table 2
[2] = biological target: T1, Tpd3 (Saccharomyces cerevisiae) (UniProt P31383); test: anti-FLAG co-IP, LC-MS/MS; pair by Table 2
T1 sequence (looked up): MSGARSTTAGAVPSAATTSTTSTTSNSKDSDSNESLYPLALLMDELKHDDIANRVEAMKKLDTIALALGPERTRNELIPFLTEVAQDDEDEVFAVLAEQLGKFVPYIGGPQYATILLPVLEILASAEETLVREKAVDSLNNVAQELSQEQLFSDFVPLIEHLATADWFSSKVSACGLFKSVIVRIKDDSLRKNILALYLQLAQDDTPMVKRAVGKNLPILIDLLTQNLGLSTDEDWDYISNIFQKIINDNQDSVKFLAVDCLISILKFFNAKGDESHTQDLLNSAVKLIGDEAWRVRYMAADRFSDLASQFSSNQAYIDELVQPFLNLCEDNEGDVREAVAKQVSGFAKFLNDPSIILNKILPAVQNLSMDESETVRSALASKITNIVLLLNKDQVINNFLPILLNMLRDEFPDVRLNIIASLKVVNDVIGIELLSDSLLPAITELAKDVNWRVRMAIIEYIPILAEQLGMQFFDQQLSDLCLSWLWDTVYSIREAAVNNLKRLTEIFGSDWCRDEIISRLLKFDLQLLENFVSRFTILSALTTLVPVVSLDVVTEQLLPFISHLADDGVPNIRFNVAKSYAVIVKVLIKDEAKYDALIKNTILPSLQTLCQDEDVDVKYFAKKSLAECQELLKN

[3] = biological target: T2, Tap42 (Saccharomyces cerevisiae) (UniProt Q04372); test: anti-FLAG co-IP, LC-MS/MS; pair by Table 2
T2 sequence (looked up): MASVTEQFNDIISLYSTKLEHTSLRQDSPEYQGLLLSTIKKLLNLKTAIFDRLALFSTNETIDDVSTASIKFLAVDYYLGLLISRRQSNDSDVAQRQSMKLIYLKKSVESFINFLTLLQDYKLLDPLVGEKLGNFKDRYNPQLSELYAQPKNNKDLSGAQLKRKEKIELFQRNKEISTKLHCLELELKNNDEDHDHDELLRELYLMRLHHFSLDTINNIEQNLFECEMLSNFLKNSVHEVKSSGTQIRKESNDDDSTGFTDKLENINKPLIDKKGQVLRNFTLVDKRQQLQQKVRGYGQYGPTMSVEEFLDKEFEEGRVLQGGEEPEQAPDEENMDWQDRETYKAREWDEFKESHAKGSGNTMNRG

[4] = biological target: T3, Cdc55 (Saccharomyces cerevisiae) (UniProt Q00362); test: anti-FLAG co-IP, LC-MS/MS; pair by Table 2 (bait Cdc55)
T3 sequence (looked up): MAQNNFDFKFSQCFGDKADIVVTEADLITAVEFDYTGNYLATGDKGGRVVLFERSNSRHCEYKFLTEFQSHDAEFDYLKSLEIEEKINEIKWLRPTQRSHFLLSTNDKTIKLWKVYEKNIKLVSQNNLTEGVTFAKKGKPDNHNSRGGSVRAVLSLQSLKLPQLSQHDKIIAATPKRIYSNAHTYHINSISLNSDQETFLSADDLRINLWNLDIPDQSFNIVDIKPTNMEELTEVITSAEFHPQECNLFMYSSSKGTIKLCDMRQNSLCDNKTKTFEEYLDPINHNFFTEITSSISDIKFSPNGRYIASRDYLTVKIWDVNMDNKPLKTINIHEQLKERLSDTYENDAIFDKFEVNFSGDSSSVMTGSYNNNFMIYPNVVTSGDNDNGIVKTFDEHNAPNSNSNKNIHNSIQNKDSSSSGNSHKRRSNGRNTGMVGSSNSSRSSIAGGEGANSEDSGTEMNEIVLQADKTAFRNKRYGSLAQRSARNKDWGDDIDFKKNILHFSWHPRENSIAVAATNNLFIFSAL

[5] = biological target: Rts1 (Saccharomyces cerevisiae) (UniProt P38903); test: anti-FLAG co-IP, LC-MS/MS
[6] = biological target: T1, Tpd3 (Saccharomyces cerevisiae); test: anti-FLAG co-IP, LC-MS/MS
[7] = biological target: T4, Ygr161c (Saccharomyces cerevisiae) (UniProt P53289); test: anti-FLAG co-IP, LC-MS/MS
T4 sequence (looked up): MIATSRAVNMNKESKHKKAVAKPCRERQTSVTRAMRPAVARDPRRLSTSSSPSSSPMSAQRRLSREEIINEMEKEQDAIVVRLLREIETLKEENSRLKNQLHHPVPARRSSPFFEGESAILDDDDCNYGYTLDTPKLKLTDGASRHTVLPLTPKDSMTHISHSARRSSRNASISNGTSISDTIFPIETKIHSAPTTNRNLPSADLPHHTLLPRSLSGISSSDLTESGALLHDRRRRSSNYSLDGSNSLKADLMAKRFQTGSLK

[8] = biological target: T2, Tap42 (Saccharomyces cerevisiae); test: anti-FLAG co-IP, LC-MS/MS
[9] = biological target: T3, Cdc55 (Saccharomyces cerevisiae); test: anti-FLAG co-IP, LC-MS/MS; pair by Table 2
[10] = biological target: T3, Cdc55 (Saccharomyces cerevisiae); test: anti-FLAG co-IP, LC-MS/MS

Measured: binding

Pph21 (from UniProt P23594 1-369)
not listed: [9] | [10]
binds: all other assays above

Pph22 (from UniProt P23595 1-377)
not listed: [4]
binds: all other assays above
